Data taken from the supplement of paper PMC10849652.
The other results are listed elsewhere or left out.

Amino acid sequences for entries named in this document (tags omitted). A change or cut given only in a name is not applied to a line headed by its entry.
UniProt Q9BS18, whole entry, looked up: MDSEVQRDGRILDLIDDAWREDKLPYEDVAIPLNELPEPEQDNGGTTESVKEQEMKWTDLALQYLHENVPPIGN
UniProt A1A5B4: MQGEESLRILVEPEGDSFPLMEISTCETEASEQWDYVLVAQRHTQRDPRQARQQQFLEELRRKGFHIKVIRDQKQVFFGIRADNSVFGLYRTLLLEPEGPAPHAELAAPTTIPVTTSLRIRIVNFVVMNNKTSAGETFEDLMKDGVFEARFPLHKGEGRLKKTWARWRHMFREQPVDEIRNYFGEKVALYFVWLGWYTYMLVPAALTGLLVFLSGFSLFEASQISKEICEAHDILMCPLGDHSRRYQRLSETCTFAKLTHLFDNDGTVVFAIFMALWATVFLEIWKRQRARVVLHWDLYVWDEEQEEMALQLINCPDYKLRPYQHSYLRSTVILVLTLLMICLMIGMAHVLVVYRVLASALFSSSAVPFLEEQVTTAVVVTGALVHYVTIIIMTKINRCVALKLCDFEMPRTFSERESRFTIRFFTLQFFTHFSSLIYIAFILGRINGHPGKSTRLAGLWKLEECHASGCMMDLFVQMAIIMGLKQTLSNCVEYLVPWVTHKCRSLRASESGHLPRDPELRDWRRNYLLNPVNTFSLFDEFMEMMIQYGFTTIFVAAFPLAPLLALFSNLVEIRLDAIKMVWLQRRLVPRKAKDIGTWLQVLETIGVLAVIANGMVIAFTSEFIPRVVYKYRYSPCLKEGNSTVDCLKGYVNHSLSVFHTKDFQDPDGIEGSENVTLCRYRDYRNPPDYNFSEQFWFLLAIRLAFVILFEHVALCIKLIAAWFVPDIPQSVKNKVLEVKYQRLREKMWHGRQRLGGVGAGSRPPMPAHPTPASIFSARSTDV
UniProt Q7Z6G8: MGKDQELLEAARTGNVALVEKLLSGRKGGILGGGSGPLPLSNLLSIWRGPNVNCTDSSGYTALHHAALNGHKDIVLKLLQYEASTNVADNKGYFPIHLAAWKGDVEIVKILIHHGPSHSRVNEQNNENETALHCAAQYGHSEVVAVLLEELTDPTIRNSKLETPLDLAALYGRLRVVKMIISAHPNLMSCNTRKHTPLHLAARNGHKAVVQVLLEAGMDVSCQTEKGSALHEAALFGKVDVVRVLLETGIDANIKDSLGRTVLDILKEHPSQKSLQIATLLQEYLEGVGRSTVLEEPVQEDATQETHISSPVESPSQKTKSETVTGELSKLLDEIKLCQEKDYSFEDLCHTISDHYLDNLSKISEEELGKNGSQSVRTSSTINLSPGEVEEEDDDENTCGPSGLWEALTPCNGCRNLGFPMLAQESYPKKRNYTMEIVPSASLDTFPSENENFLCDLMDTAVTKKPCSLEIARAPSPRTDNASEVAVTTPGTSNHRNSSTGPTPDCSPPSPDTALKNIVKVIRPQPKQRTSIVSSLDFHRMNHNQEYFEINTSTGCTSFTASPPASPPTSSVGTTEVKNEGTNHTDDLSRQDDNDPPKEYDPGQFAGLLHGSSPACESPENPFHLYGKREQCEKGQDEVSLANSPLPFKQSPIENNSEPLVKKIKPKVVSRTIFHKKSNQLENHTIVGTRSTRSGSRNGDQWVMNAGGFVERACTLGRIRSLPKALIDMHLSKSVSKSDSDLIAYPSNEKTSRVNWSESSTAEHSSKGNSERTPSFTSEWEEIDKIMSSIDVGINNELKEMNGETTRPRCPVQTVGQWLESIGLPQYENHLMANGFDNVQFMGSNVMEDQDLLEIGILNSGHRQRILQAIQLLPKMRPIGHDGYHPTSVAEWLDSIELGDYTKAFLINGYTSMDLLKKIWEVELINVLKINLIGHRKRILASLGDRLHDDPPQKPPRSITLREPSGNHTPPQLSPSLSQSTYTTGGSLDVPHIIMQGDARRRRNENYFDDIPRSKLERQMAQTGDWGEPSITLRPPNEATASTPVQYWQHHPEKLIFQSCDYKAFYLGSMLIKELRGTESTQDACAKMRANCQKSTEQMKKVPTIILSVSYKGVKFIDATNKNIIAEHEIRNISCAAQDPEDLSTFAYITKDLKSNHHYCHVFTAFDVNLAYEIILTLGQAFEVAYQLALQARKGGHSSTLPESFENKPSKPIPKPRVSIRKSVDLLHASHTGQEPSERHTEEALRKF
UniProt Q3KRA9: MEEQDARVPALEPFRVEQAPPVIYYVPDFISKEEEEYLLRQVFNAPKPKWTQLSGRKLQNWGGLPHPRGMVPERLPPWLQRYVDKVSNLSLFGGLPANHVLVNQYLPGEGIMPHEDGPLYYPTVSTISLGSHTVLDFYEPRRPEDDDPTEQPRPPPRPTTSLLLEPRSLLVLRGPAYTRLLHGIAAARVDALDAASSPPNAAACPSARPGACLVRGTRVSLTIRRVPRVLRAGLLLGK
UniProt Q6UB99: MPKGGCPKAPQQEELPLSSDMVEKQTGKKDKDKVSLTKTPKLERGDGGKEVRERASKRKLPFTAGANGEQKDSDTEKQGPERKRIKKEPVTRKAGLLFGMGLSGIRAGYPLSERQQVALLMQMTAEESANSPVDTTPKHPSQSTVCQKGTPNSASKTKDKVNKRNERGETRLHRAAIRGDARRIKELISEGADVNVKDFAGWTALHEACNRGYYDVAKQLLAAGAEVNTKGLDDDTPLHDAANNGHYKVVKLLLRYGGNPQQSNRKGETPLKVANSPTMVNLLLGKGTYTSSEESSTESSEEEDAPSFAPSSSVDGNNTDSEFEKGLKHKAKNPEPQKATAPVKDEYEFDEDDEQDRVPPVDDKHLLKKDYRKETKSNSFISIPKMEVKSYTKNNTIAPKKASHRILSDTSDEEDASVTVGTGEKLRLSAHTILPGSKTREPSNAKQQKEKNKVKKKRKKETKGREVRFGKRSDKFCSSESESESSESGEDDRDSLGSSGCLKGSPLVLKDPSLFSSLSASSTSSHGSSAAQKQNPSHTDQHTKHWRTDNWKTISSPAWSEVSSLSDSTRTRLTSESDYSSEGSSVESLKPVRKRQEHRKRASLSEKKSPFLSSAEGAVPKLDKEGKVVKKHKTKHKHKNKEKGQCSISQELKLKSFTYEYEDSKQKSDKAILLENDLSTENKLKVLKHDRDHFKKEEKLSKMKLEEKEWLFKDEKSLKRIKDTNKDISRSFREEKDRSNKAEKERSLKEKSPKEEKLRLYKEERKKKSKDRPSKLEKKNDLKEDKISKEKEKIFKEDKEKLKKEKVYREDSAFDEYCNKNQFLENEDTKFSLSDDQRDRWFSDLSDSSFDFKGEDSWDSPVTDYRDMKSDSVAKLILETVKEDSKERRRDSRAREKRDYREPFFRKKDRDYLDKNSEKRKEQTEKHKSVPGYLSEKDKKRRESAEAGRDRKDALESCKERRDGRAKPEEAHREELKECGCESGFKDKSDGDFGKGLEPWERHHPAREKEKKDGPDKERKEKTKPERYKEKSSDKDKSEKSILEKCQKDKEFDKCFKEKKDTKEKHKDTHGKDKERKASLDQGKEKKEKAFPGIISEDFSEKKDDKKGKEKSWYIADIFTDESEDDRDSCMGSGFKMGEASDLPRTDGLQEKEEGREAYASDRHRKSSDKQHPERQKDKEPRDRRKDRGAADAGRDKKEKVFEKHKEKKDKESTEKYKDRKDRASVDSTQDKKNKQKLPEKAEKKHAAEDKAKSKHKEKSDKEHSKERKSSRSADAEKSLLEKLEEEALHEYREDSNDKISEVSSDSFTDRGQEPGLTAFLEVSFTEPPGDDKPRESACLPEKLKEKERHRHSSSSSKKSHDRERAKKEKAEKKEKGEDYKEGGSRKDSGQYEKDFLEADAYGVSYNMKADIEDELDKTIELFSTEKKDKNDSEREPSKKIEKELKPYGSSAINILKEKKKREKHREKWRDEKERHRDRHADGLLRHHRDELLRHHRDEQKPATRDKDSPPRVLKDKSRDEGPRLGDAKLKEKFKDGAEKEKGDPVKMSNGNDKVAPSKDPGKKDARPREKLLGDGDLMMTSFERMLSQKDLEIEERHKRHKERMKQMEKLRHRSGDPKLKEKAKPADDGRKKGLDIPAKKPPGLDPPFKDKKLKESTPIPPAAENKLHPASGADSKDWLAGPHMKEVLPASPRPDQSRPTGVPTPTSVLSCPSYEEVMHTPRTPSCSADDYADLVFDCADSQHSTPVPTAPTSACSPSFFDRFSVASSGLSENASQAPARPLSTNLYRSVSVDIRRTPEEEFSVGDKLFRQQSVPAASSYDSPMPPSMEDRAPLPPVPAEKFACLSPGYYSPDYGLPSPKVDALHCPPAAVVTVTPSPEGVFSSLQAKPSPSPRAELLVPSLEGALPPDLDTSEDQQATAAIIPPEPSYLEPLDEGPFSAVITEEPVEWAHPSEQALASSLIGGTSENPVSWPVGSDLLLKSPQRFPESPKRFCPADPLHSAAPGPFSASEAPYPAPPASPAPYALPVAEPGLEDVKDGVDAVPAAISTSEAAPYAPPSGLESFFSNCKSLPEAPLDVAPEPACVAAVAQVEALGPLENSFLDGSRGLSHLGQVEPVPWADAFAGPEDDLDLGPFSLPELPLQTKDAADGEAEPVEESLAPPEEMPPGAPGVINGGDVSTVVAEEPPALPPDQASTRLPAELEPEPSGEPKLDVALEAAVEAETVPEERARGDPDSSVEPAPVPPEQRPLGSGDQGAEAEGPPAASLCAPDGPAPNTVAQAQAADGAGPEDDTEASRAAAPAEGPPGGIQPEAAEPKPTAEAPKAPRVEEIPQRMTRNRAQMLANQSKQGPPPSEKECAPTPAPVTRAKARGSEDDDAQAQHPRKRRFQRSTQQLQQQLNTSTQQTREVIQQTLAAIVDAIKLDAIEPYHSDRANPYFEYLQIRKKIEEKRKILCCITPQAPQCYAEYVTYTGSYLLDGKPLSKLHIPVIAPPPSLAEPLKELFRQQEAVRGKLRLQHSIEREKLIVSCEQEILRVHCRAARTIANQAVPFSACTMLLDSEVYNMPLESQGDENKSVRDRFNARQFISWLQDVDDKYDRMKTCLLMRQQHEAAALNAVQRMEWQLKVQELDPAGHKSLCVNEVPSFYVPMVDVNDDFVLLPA
UniProt Q96QP1: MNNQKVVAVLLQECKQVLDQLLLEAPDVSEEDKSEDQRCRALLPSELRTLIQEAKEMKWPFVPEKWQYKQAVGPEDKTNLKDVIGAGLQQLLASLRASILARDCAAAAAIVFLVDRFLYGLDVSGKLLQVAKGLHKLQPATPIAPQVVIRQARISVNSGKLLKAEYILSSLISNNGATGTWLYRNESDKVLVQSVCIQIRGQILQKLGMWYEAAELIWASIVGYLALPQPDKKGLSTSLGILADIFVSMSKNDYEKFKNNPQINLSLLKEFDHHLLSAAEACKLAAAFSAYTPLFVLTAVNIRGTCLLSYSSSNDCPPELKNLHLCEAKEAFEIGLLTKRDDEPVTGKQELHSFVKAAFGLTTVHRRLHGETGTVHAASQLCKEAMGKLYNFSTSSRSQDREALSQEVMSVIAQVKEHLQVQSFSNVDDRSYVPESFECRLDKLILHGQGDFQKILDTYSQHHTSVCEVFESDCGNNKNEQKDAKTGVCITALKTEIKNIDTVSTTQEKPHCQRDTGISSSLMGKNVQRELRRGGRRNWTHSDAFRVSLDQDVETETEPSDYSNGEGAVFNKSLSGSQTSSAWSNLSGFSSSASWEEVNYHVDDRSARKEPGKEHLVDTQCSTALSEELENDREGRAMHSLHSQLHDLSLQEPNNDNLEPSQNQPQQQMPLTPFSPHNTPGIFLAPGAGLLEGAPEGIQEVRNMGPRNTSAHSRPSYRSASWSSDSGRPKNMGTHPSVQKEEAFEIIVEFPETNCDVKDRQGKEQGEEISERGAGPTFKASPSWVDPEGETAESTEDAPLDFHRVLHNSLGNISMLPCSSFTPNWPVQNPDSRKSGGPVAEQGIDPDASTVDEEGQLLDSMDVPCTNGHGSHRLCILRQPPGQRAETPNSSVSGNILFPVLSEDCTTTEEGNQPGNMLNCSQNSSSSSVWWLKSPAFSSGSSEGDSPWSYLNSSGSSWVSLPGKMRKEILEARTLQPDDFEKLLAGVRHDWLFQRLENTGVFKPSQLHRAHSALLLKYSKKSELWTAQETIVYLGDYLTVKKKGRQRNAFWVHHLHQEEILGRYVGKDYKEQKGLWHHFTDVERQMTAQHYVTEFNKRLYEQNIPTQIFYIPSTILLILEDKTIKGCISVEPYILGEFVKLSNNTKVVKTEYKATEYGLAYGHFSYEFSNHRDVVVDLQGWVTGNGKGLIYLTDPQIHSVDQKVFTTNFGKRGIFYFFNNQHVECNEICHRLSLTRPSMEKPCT

Assays:
Experiment in all cases: log2 fold change, soluble protein after heating vs DMSO (PISA); higher = thermal stabilisation; K562 lysate, 10 uM; active = over 0.2 and 3.5 SD of the protein, either way, in both replicates (recomputed)
[1] = compound: CC(C)C1=C2N=C(C=C(N2N=C1)NCC3=CC=CC=C3)NCCCCCCN
Outline: (§1)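 Log-two fold change in thermal stability relative to solvent controls is reported from duplicates. For each sample, crude K562 extract from dounce-homogenised pellets in PBS pH 7.4 with 1 mM MgCl2, at 1 mg/mL protein, was treated with 10 μM compound for 30 min. Aliquots heated for 3 min across 48°C-58°C were pooled, brought to 0.5% NP-40 at 4°C and cleared at 21,000xg for 90 min. The supernatant was quantified by TMTpro 16plex LC-MS/MS with channel sums equalised.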

[2] = compound: CC1=C(C(CC(=O)N1)C2=CC=C(C=C2)C(F)(F)F)C(=O)NC3=C(C=C4C(=C3)C=NN4)F
Outline: as §1

[3] = compound: CC1=C(C2=C(C=C1)C(=O)C3=CC=CC=C3N2CCCN)C
Outline: as §1

[4] = compound: CC1=C(C=C(C=C1)NC(=O)C2=CC(=CC=C2)C(C)(C)C#N)NC3=CC4=C(C=C3)N=CN(C4=O)C
Outline: as §1

[5] = compound: CC[C@@H]1C(=O)N(C)c2cnc(Nc3ccc(C(=O)NC4CCN(C)CC4)cc3OC)nc2N1C1CCCC1
Outline: as §1

[6] = compound: CCn1cc(-c2ccnc3[nH]c(-c4cccc(CN(C)C)c4)cc23)c(-c2ccc(NC(=O)N(C)C)cc2)n1
Outline: as §1

[7] = compound: CN1CCC(CNc2ccc3ncc(-c4cccc(OC(F)(F)F)c4)n3n2)CC1
Outline: as §1

[8] = compound: CN1CCN(CCOc2cc(OC3CCOCC3)c3c(Nc4c(Cl)ccc5c4OCO5)ncnc3c2)CC1 [saracatinib]
Outline: as §1

[9] = compound: CN1CCN(c2nc(C3=C(c4c[nH]c5ccccc45)C(=O)NC3=O)c3ccccc3n2)CC1 [sotrastaurin]
Outline: as §1

[10] = compound: CCCS(=O)(=O)Nc1ccc(F)c(C(=O)c2c[nH]c3ncc(-c4ccc(Cl)cc4)cc23)c1F [vemurafenib]
Outline: as §1

[11] = compound: CC(C)(C)Cn1c(N)nc2ccc(-c3[nH]c(C(C)(C)C)nc3-c3ccc(F)cc3)nc21 [ralimetinib]
Outline: as §1

[12] = compound: CC(C)(O)CC(=O)NCCn1ccc2ncnc(Nc3ccc(Oc4cccc(C(F)(F)F)c4)c(Cl)c3)c21
Outline: as §1

[13] = compound: CC1=C(C=C(C=C1)NC(=O)C2=CC(=CC=C2)N(C)C)NC(=O)C3=CC=C(C=C3)O
Outline: as §1

[14] = compound: CCn1c(C(=O)N(C2CC2)C2CC2)cc2c3c(ncn3C)c(Nc3cc(C)n(C)n3)nc21
Outline: as §1

[15] = compound: CC(=O)c1cnc2ccc(-c3cc(Cl)c(O)c(Cl)c3)nc2c1N[C@H]1CC[C@H](CN(C)C)CC1
Outline: as §1

[16] = compound: CC1=CC=C(C=C1)SC2=C3C=C(SC3=CN=C2)C(=O)N
Outline: as §1

[17] = compound: CCCS(=O)(=O)Nc1ccc(F)c(C(=O)c2c[nH]c3ncc(Cl)cc23)c1F
Outline: as §1

[18] = compound: CC[C@@H]1C(=O)N(C)c2cnc(Nc3ccc(C(=O)N[C@H]4CC[C@H](N5CCN(CC6CC6)CC5)CC4)cc3OC)nc2N1C(C)C [volasertib]
Outline: as §1

Measured: log2 fold change

ANAPC15 isoform 2 (UniProt P60006)
inactive: [1] 0.064 | [2] 0.087 | [3] -0.164 | [4] 0.03 | [5] 0.185 | [6] -0.212 | [7] -0.084 | [8] -0.147 | [9] -0.022

ANAPC13 (UniProt Q9BS18)
inactive: [10] -0.084 | [5] -0.012

AP1S2 (UniProt H7BZG6)
inactive: [1] -0.026

ANO9 (UniProt A1A5B4)
inactive: [11] -0.061 | [12] -0.151 | [3] -0.012 | [13] -0.274 | [14] 0.113 | [8] -0.038

ANKS1B (UniProt Q7Z6G8)
inactive: [15] 0.026 | [16] -0.07 | [17] 0.071 | [18] 0.033

ALKBH6 isoform 2 (UniProt Q3KRA9)
inactive: [11] 0.073 | [12] -0.033 | [1] -0.063 | [2] -0.036 | [3] 0.017 | [4] 0.098 | [13] -0.138 | [10] -0.097 | [5] -0.032 | [14] 0.037 | [6] 0.058 | [7] -0.034 | [8] -0.022 | [9] 0.042

ANKRD12 (UniProt Q6UB98)
inactive: [11] 0.002 | [12] 0.007 | [13] -0.034 | [5] 0.054 | [14] -0.03

AMDHD2 (UniProt Q9Y303)
inactive: [4] 0.014 | [10] -0.128 | [6] -0.116 | [7] 0.052 | [9] 0.047

2 records drawn at random from those above, as already listed:
ANAPC13 (UniProt Q9BS18)
inactive: [10] -0.084 | [5] -0.012

AP1S2 (UniProt H7BZG6)
inactive: [1] -0.026

The list goes on.

AMFR (UniProt Q9UKV5)
inactive: [11] 0.049 | [12] 0.014 | [1] 0 | [2] 0.038 | [3] -0.093 | [4] -0.056 | [13] -0.005 | [10] 0.044 | [5] -0.049 | [14] -0.027 | [6] -0.191 | [7] 0.03 | [8] 0.048 | [9] 0.008

ANKRD13B (UniProt Q86YJ7)
inactive: [15] -0.119 | [3] -0.078 | [16] -0.022 | [17] -0.119 | [5] -0.065 | [18] -0.027 | [8] -0.21

ANKRD11 (UniProt Q6UB99)
inactive: [11] -0.029 | [12] -0.025 | [1] 0.053 | [3] -0.125 | [4] 0.037 | [13] 0.012 | [10] 0.054 | [5] -0.027 | [14] -0.005 | [6] -0.046 | [7] -0.337 | [8] 0.161 | [9] 0.094

ALPK1 (UniProt Q96QP1)
inactive: [1] -0.021
